In PMC6613617:
The exact form of at least one protein or probe is not confirmed. At least one verdict rests on a figure or table, not on a statement of the authors.

How the values were obtained:
[1] = system: POLD1 WT (catalytic subunit of Pol delta) + POLD2 + POLD3 + POLD4; assay: EMSA; conditions: without PCNA, EMSA: 20 mM Tris-HCl pH 8.0, 20 mM KCl, 1 mM EDTA, 0.5 mM TCEP, 20 nM probe, 10-80 nM Pol delta, 25 C 30 min, 7% native PAGE, 0.5x TBE, recombinant protein
[2] = system: POLD1 WT (catalytic subunit of Pol delta) + POLD2 + POLD3 + POLD4 + PCNA; assay: EMSA; conditions: copurified with PCNA, EMSA: 20 mM Tris-HCl pH 8.0, 20 mM KCl, 1 mM EDTA, 0.5 mM TCEP, 20 nM probe, 10-80 nM Pol delta, 25 C 30 min, 7% native PAGE, 0.5x TBE, recombinant protein
[3] = label: 5'-fluorescein (FAM) on strand 1
[4] = label: 5'-fluorescein (FAM), single-stranded DNA

**Q.** Does “GTTTCTTCAATCTTCATCATACAGGTCAG / CTGACCTGTATGATGAAGATTGAAAGAAAC [dsDNA probe (Fig 3C,D)]” bind [1, 3]?
**A.** Result: binds

**Q.** Does “GTTTCTTCAATCTTCATCATACAGGTCAG / CTGACCTGTATGATGAAGATTGAAAGAAAC [dsDNA probe (Fig 3C,D)]” bind [2, 3]?
**A.** Result: binds

**Q.** Does “GTTTCTTCAATCTTCATCATACAGGTCAG [ssDNA probe (Fig 3E,F)]” bind [1, 4]?
**A.** Result: binds

**Q.** Does “GTTTCTTCAATCTTCATCATACAGGTCAG [ssDNA probe (Fig 3E,F)]” bind [2, 4]?
**A.** Result: binds
